Experimental data as given in the supplement of paper PMC10849652.
The list shows a part of the results.

Protein sequences, listed by entry. Tags and fused reporters are not part of them. Lines headed by an entry give the natural chain unless they say otherwise; changes in a name come on top.
UniProt Q92973: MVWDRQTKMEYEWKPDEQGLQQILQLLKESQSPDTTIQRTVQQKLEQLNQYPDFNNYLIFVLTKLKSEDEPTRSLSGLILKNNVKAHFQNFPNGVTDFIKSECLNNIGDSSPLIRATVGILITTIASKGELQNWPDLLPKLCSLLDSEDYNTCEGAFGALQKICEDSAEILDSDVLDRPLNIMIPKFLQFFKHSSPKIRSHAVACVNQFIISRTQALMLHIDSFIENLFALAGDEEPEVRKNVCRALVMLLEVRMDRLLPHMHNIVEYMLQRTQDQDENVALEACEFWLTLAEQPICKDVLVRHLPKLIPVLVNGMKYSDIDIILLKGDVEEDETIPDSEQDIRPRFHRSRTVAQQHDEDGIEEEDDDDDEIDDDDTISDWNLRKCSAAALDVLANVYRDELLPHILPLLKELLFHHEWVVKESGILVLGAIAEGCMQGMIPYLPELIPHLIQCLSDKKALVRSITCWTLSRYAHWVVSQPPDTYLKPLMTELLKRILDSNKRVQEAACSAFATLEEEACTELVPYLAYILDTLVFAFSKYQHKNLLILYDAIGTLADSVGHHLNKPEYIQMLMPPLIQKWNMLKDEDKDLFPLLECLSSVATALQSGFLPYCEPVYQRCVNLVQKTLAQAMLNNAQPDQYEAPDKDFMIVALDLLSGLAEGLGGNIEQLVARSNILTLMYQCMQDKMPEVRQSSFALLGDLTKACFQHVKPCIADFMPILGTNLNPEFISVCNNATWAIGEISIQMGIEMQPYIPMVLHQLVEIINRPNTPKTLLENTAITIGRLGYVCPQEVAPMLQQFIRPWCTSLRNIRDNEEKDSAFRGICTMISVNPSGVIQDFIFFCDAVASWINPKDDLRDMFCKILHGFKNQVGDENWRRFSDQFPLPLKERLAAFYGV
UniProt Q6PJ69: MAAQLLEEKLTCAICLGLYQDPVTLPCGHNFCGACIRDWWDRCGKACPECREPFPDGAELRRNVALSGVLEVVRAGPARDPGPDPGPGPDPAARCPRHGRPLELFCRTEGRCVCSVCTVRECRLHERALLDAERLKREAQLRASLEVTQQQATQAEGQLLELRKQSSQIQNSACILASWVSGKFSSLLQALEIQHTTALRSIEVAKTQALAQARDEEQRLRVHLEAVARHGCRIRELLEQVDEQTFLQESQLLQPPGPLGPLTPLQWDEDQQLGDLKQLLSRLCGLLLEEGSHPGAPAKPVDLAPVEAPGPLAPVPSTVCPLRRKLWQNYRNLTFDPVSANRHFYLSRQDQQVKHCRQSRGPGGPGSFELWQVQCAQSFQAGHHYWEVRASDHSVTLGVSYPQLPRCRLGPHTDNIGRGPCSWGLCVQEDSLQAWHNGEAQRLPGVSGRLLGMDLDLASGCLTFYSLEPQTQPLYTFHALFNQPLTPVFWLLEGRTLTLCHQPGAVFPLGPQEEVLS
UniProt P36406: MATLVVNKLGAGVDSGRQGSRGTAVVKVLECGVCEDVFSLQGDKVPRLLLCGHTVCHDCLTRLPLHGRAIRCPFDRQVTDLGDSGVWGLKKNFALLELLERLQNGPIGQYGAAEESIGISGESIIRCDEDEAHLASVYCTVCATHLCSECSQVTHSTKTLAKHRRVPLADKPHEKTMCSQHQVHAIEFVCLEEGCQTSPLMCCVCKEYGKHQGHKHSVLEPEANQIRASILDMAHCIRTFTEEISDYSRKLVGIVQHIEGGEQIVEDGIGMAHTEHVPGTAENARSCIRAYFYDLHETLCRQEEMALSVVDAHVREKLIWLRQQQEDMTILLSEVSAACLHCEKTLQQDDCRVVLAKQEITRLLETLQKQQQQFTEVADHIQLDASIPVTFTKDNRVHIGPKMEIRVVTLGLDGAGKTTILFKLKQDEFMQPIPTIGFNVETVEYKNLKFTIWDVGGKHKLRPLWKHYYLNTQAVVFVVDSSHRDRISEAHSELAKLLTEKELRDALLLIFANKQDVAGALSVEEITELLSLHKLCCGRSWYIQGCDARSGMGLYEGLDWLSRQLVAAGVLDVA
UniProt Q5T2D2: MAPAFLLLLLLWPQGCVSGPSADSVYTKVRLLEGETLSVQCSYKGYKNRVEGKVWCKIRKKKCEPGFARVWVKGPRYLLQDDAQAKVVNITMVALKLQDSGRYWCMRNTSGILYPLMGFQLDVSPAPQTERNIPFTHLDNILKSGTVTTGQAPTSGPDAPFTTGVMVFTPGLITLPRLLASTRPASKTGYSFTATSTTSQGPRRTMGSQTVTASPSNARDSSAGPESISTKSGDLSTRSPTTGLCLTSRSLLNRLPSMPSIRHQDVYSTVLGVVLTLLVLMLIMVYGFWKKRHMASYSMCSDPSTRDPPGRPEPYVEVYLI
UniProt Q8TEL6: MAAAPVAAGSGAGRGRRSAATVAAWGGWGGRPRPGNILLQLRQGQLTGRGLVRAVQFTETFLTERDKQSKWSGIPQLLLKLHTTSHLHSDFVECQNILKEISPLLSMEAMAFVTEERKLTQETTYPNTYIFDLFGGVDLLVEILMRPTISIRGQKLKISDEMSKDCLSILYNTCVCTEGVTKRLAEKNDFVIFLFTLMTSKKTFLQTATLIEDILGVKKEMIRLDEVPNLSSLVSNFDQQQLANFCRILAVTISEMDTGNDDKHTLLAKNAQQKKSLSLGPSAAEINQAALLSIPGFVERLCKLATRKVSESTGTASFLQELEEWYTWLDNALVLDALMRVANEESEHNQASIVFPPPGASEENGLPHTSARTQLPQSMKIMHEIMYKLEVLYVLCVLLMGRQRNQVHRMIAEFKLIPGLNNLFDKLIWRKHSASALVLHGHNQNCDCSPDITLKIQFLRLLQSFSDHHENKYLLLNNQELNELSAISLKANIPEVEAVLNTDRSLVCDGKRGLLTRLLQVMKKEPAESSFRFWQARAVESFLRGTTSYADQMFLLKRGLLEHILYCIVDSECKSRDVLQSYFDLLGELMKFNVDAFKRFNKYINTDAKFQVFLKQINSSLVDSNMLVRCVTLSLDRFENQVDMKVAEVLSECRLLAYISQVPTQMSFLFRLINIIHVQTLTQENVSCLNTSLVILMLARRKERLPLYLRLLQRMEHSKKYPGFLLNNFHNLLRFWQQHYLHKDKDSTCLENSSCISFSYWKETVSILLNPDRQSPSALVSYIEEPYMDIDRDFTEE
UniProt Q96QT4: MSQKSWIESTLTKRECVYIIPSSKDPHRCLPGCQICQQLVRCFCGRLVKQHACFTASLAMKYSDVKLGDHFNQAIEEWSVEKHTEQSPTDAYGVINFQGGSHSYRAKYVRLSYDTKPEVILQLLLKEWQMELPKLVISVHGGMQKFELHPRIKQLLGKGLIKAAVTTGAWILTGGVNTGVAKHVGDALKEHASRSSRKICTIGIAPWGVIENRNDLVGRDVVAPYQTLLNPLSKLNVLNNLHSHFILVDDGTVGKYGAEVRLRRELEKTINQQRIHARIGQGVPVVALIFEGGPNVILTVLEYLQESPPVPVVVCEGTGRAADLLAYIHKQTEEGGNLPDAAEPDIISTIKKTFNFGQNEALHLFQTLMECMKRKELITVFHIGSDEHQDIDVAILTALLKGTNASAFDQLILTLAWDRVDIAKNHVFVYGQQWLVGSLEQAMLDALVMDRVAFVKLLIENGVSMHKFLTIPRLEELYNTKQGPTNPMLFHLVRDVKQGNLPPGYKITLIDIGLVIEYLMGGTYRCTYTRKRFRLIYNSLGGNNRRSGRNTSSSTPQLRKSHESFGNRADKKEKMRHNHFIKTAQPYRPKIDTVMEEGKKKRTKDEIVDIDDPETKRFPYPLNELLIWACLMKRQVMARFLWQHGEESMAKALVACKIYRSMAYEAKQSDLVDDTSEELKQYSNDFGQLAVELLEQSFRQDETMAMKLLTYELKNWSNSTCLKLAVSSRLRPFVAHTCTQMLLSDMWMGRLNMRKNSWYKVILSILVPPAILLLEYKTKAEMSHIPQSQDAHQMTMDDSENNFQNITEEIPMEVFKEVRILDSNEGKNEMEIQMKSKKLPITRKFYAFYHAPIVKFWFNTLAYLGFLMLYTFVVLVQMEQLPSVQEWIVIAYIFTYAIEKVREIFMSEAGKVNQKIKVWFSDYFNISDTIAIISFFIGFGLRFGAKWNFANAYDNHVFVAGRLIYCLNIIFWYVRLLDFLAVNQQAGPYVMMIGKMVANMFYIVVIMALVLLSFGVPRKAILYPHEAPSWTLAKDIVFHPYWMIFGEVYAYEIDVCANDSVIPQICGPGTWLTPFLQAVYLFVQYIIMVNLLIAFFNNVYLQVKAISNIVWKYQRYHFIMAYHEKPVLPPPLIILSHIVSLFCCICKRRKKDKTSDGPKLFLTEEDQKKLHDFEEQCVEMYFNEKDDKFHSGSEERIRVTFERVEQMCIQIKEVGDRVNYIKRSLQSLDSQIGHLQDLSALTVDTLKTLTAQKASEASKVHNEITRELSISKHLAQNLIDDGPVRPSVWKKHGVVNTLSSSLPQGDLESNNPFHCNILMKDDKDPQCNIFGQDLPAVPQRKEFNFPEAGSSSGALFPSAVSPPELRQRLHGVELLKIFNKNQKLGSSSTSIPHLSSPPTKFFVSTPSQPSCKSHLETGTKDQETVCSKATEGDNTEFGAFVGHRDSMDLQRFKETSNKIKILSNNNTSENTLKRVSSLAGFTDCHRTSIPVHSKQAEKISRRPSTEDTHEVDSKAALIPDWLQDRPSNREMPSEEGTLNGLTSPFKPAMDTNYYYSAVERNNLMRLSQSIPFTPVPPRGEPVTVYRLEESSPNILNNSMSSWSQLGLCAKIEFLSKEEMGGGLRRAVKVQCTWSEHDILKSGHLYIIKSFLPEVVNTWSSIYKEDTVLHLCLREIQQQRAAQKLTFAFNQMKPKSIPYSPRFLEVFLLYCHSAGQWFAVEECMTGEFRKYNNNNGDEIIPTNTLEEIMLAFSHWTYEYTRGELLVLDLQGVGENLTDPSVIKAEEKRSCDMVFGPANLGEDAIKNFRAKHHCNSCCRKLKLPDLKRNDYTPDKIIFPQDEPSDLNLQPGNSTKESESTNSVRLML
UniProt Q9Y5L0: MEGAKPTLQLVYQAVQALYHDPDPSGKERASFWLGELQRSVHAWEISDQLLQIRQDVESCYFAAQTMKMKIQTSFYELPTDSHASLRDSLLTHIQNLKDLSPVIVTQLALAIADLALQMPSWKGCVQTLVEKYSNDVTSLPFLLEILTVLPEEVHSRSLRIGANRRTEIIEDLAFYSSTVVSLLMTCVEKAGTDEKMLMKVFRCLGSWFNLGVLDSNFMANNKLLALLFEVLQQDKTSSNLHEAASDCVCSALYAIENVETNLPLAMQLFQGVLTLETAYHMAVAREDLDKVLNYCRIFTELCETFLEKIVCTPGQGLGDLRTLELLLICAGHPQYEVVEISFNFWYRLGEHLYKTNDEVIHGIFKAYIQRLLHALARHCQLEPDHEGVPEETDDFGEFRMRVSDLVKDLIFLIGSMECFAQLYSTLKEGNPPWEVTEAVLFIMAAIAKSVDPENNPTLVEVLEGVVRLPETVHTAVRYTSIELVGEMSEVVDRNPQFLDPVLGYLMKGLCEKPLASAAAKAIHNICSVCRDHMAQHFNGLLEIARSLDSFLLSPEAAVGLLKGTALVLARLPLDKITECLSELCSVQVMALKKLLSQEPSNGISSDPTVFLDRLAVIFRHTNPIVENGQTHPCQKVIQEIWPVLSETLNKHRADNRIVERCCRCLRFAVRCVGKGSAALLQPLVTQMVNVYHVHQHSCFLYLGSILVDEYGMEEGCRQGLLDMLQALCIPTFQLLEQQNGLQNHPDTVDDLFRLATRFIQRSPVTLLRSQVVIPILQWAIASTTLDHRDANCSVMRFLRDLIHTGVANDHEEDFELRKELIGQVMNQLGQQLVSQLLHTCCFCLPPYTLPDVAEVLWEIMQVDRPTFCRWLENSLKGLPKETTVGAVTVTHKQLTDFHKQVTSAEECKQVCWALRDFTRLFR
UniProt Q9UL33, whole entry, looked up: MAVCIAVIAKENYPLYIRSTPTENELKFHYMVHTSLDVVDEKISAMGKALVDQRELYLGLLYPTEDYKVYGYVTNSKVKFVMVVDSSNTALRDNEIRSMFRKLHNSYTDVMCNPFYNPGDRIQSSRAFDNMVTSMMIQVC
UniProt Q96GJ1: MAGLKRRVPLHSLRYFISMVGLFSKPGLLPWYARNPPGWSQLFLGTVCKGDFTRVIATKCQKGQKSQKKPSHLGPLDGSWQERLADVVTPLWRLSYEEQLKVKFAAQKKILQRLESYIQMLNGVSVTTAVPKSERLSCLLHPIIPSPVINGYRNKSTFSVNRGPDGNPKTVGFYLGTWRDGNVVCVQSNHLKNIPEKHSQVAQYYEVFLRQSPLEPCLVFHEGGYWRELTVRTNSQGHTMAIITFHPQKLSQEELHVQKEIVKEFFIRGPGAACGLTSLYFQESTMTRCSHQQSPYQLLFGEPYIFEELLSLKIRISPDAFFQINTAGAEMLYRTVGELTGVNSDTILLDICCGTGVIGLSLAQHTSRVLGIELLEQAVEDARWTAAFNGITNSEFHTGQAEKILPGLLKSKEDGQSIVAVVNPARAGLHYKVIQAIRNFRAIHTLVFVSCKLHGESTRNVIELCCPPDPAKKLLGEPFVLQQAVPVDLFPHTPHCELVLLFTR

Legend:
Test in all cases: log2 fold change, soluble protein after heating vs DMSO (PISA); higher = thermal stabilisation; K562 cells, 10 uM, 30 min; active = over 0.2 and 3.5 SD of the protein, either way, in both replicates (recomputed)
[1] = compound: CN1CCN(CCOc2cc(OC3CCOCC3)c3c(Nc4c(Cl)ccc5c4OCO5)ncnc3c2)CC1 [saracatinib]
In short: (§1)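 Quantification of soluble protein used TMTpro 16plex LC-MS/MS, with channel sums equalised. Samples were the supernatant after 21,000xg for 90 min of pooled aliquots from K562 cells (2×10^6 cells/mL) treated with 10 μM compound for 30 min, heated for 3 min over 48°C-58°C, and extracted in PBS with 0.5% NP-40 at 4°C. Values, from duplicates, describe thermal stability against control samples on a log2 fold-change scale.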

[2] = compound: CN1CCN(c2nc(C3=C(c4c[nH]c5ccccc45)C(=O)NC3=O)c3ccccc3n2)CC1 [sotrastaurin]
In short: as §1

[3] = compound: CN1CCc2c(c3ccccc3n2Cc2ccc(C(=O)NO)cc2)C1 [Tubastatin A]
In short: as §1

[4] = compound: CNC(=O)C1=CC=CC=C1NC2=NC(=NC=C2Cl)NC3=C(C=C(C=C3)N4CCOCC4)OC
In short: as §1

[5] = compound: CNC(=O)c1ccc(Nc2ncc(C(F)(F)F)c(NCc3nccnc3N(C)S(C)(=O)=O)n2)cc1 [defactinib]
In short: as §1

[6] = compound: CNCc1ccc(-c2[nH]c3cc(F)cc4c3c2CCNC4=O)cc1 [rucaparib]
In short: as §1

[7] = compound: CNc1nc(-c2ccc3c(N)n[nH]c3c2)cc(N2C[C@@H](C(=O)NC3CCCCC3)CC[C@H]2C)n1
In short: as §1

[8] = compound: COC(=O)N[C@@H](C)CNc1nccc(-c2cn(C(C)C)nc2-c2cc(Cl)cc(NS(C)(=O)=O)c2F)n1 [encorafenib]
In short: as §1

[9] = compound: COC(=O)[C@H](CCSC)NC(=O)C1=C(C=C(C=C1)NC[C@H](CS)N)C2=CC=CC=C2
In short: as §1

[10] = compound: COC1=CC=C(C=C1)CN2C=CC3=C2C=C(C=C3)C(=O)NO
In short: as §1

[11] = compound: CON(C)C(=O)N1N=C(c2cc(F)ccc2F)S[C@@]1(CCCN)c1ccccc1 [filanesib]
In short: as §1

[12] = compound: CO[C@H]1C[C@@H]2CC[C@@H](C)[C@@](O)(O2)C(=O)C(=O)N2CCCC[C@H]2C(=O)O[C@H]([C@H](C)C[C@@H]2CC[C@H](n3cnnn3)[C@H](OC)C2)CC(=O)[C@H](C)/C=C(\C)[C@@H](O)[C@@H](OC)C(=O)[C@H](C)C[C@H](C)/C=C/C=C/C=C/1C [zotarolimus]
In short: as §1

[13] = compound: COc1cc(C(=O)O)ccc1NC(=O)[C@@H]1N[C@@H](CC(C)(C)C)[C@](C#N)(c2ccc(Cl)cc2F)[C@H]1c1cccc(Cl)c1F [idasanutlin]
In short: as §1

[14] = compound: COc1cc(Nc2ncc3c(n2)-c2ccc(Cl)cc2C(c2c(F)cccc2OC)=NC3)ccc1C(=O)O [alisertib]
In short: as §1

[15] = compound: COc1cc2nc(-c3cc(F)ccc3O)nc(N[C@@H]3CNC[C@H]3C(C)(C)O)c2cc1OC
In short: as §1

[16] = compound: COc1cc2ncnc(Nc3ccc(F)c(Cl)c3)c2cc1OCCCN1CCOCC1 [gefitinib]
In short: as §1

[17] = compound: COc1cccc2cc(-c3nc([C@H]4CC[C@H](C(=O)O)CC4)n4ncnc(N)c34)[nH]c12
In short: as §1

[18] = compound: CS(=O)(=O)CCNCc1ccc(-c2ccc3ncnc(Nc4ccc(OCc5cccc(F)c5)c(Cl)c4)c3c2)o1 [lapatinib]
In short: as §1

[19] = compound: CS(=O)(=O)N1CCN(Cc2cc3nc(-c4cccc5[nH]ncc45)nc(N4CCOCC4)c3s2)CC1 [pictilisib]
In short: as §1

[20] = compound: CN1CC[C@H](c2c(O)cc(O)c3c(=O)cc(-c4ccccc4Cl)oc23)[C@H](O)C1 [alvocidib]
In short: as §1

Row | Target | log2 fold change [1] | log2 fold change [2] | log2 fold change [3] | log2 fold change [4] | log2 fold change [5] | log2 fold change [6] | log2 fold change [7] | log2 fold change [8] | log2 fold change [9] | log2 fold change [10] | log2 fold change [11] | log2 fold change [12] | log2 fold change [13] | log2 fold change [14] | log2 fold change [15] | log2 fold change [16] | log2 fold change [17] | log2 fold change [18] | log2 fold change [19] | log2 fold change [20]
1 | TNPO1 (UniProt Q92973) | inactive: 0.034 | inactive: -0.062 | inactive: -0.064 | inactive: -0.013 | inactive: -0.123 | inactive: -0.04 | inactive: 0.009 | inactive: 0.029 | inactive: 0.006 | inactive: -0.008 | inactive: -0.096 | inactive: 0.012 | inactive: -0.023 | inactive: -0.074 | inactive: -0.156 | inactive: -0.001 | inactive: -0.012 | inactive: -0.005 | inactive: -0.02 | 
2 | TRIM65 (UniProt Q6PJ69) | inactive: -0.249 |  |  |  | inactive: -0.343 | inactive: -0.011 | inactive: 0.138 | inactive: -0.045 | inactive: 0.036 | inactive: -0.117 |  | inactive: -0.077 |  |  |  |  |  |  |  | inactive: 0.009
3 | TOE1 (UniProt Q96GM8) | inactive: 0.025 | inactive: -0.016 | inactive: 0.031 | inactive: 0.122 | inactive: 0.193 | inactive: -0.066 | inactive: 0.05 | inactive: 0.017 | inactive: 0.05 | inactive: -0.06 | inactive: 0.246 | inactive: 0.023 | inactive: 0.032 | inactive: -0.075 | inactive: 0.039 | inactive: 0.014 | inactive: -0.162 | inactive: 0.076 | inactive: -0.054 | 
4 | TRAPPC2 isoform 3 (UniProt P0DI81) | inactive: -0.049 |  | inactive: 0.085 | inactive: -0.027 | inactive: -0.081 |  | inactive: -0.081 |  | inactive: -0.08 |  |  | inactive: 0.066 | inactive: 0.008 | inactive: 0.066 | inactive: -0.015 | inactive: 0.064 | inactive: -0.144 | inactive: -0.052 | inactive: -0.031 | inactive: 0.124
5 | TRIM23 (UniProt P36406) | inactive: 0.033 | inactive: 0.075 | inactive: 0.032 | inactive: -0.049 | inactive: -0.004 | inactive: 0.057 | inactive: 0.035 | inactive: 0.012 | inactive: -0.039 | inactive: 0.019 | inactive: -0.031 | inactive: 0.036 |  | inactive: -0.078 |  | inactive: 0.012 | inactive: 0.039 |  | inactive: 0.204 | 
6 | TREML2 (UniProt Q5T2D2) | inactive: 0.127 | inactive: 0.034 |  | inactive: -0.176 |  |  | inactive: 0.002 |  |  | inactive: -0.022 | inactive: 0.012 |  |  | inactive: 0.057 |  |  | inactive: 0.005 |  |  | 
7 | TRPC4AP (UniProt Q8TEL6) | inactive: -0.052 | inactive: -0.063 | inactive: 0.033 | inactive: -0.097 | inactive: -0.016 |  | inactive: 0.05 |  | inactive: 0.006 | inactive: 0.014 | inactive: 0.062 |  | inactive: 0.032 | inactive: -0.172 | inactive: -0.043 | inactive: 0.271 | inactive: 0.053 | inactive: 0.08 | inactive: -0.042 | 
8 | TRPM7 (UniProt Q96QT4) | inactive: 0.036 |  | inactive: 0.036 | inactive: 0.07 | inactive: -0.119 | inactive: 0.173 | inactive: 0.117 | inactive: -0.025 | inactive: -0.108 | inactive: -0.028 |  | inactive: -0.075 | inactive: 0.153 | inactive: -0.154 | inactive: -0.098 |  | inactive: -0.081 | inactive: 0.087 | inactive: 0.033 | inactive: 0.003
9 | TNPO3 (UniProt Q9Y5L0) | inactive: 0.034 | inactive: -0.075 | inactive: -0.03 | inactive: -0.011 | inactive: -0.067 | inactive: 0 | inactive: -0.013 | inactive: 0.032 | inactive: -0.003 | inactive: 0.053 | inactive: -0.094 | inactive: 0.036 | inactive: -0.074 | inactive: -0.064 | inactive: -0.035 | inactive: -0.012 | inactive: -0.004 | inactive: -0.035 | inactive: 0.077 | 
10 | TRAPPC2L (UniProt Q9UL33) | inactive: -0.07 | inactive: -0.101 | inactive: 0.011 | active: -0.376 | inactive: -0.032 | inactive: 0.03 | inactive: -0.026 | inactive: 0.012 | inactive: -0.042 | inactive: -0.102 | inactive: -0.05 | inactive: 0.098 | inactive: -0.026 | inactive: -0.029 | inactive: 0.03 | inactive: 0 | inactive: -0.062 | inactive: 0.088 | inactive: -0.018 | 
11 | TRMT2B (UniProt Q96GJ1) | inactive: -0.029 |  | inactive: 0.115 | inactive: 0.064 | inactive: -0.013 | inactive: -0.054 | inactive: -0.018 | inactive: -0.023 | inactive: -0.04 |  |  | inactive: -0.243 | inactive: -0.039 | inactive: 0.215 | inactive: -0.118 | inactive: 0.171 | inactive: -0.005 | inactive: -0.03 | inactive: 0.033 | inactive: 0.019

Part of the list above in a different format:

| Row | Target | log2 fold change [1] | log2 fold change [2] | log2 fold change [3] | log2 fold change [4] | log2 fold change [5] | log2 fold change [6] | log2 fold change [7] | log2 fold change [8] | log2 fold change [9] | log2 fold change [10] | log2 fold change [11] | log2 fold change [12] | log2 fold change [13] | log2 fold change [14] | log2 fold change [15] | log2 fold change [16] | log2 fold change [17] | log2 fold change [18] | log2 fold change [19] | log2 fold change [20] |
| --- | --- | --- | --- | --- | --- | --- | --- | --- | --- | --- | --- | --- | --- | --- | --- | --- | --- | --- | --- | --- | --- |
| 1 | TNPO1 (UniProt Q92973) | inactive: 0.034 | inactive: -0.062 | inactive: -0.064 | inactive: -0.013 | inactive: -0.123 | inactive: -0.04 | inactive: 0.009 | inactive: 0.029 | inactive: 0.006 | inactive: -0.008 | inactive: -0.096 | inactive: 0.012 | inactive: -0.023 | inactive: -0.074 | inactive: -0.156 | inactive: -0.001 | inactive: -0.012 | inactive: -0.005 | inactive: -0.02 |  |
| 11 | TRMT2B (UniProt Q96GJ1) | inactive: -0.029 |  | inactive: 0.115 | inactive: 0.064 | inactive: -0.013 | inactive: -0.054 | inactive: -0.018 | inactive: -0.023 | inactive: -0.04 |  |  | inactive: -0.243 | inactive: -0.039 | inactive: 0.215 | inactive: -0.118 | inactive: 0.171 | inactive: -0.005 | inactive: -0.03 | inactive: 0.033 | inactive: 0.019 |
